# In PubChem BioAssay AID540276 (National Center for Advancing Translational Sciences (NCATS), 2011):
# Out of some 300,000 compounds screened, about 5,400 (1.8%) were called active. Inconclusive results, whose numbers are uncertain, are shown with a selection of clear calls. The call rests on the fitted dose curve; tested in HEK293 cells. Potencies beside an inconclusive call are fits to weak or partial responses and may not hold up.
# Test: qHTS for inhibitors of binding or entry into cells for Marburg Virus
# Conditions: Marburg virus pseudotyped entry inhibition, cell reporter; series mostly up to 37.8 µM
# Potency means the concentration at half of the fitted maximal effect.
row,SMILES,Potency
1,COc1cccc(C(c2c(O)nc(SC)n(C)c2=O)c2c(O)nc(SC)n(C)c2=O)c1,inactive
2,COc1ccccc1C(=O)NC(=S)Nc1ccc(NC(=O)c2ccco2)cc1,"inconclusive: 7.08 µM [inhibitor, partial curve, poor fit]"
3,C[C@H]1NS(=O)(=O)c2ccc(Br)cc2O[C@H]1c1ccccc1,inactive
4,CC(NCc1ccncc1)C12CC3CC(CC(C3)C1)C2 (stereo unspecified),inactive
5,CC1(C)C2(C#N)C(N)=NC3(OCCO3)C12C#N (stereo unspecified),"inconclusive: 14.1 µM [activator, single point]"
6,Cc1ccc2cc(CN(CCCN(C)C)C(=O)NCc3ccccc3)c(=O)[nH]c2c1C,"inconclusive: 17.8 µM [inhibitor, single point]"
7,Cc1ccccc1C(=O)N1CCN(c2ccc(NC(=O)c3ccc([N+](=O)[O-])o3)cc2)CC1,"inconclusive: 3.55 µM [inhibitor, partial curve, poor fit]"
8,Cc1ccc(S(=O)(=O)NCCNC(=O)c2ccc(C)nc2)cc1,"inconclusive: 14.1 µM [activator, single point]"
9,Cc1ccc(Cn2c(C)c3cnn(CC(=O)NCCc4ccc(Cl)cc4)c(=O)c3c2C)cc1,inactive
10,O=C1CC(N2CCCN(C3CC(=O)N(c4ccc(F)cc4)C3=O)CC2)C(=O)N1c1ccc(F)cc1 (stereo unspecified),inactive
11,CCOC(=O)c1c(C)[nH]c(C(=O)N/N=C\c2ccccc2O)c1C,"inconclusive: 10 µM [inhibitor, partial curve]"
12,Cc1ccsc1/C=N\Nc1cn[nH]c(=O)c1Cl,"inconclusive: 6.31 µM [inhibitor, single point]"
13,Cc1nc(NC(=O)COC(=O)C2CC3CCCC(C2)C3=O)c(Cl)cc1Cl (stereo unspecified),"inconclusive: 1.26 µM [activator, single point]"
14,Cc1ccc(O)c(NC(=S)NC(=O)c2ccccc2Cl)c1,"inconclusive: 35.5 µM [inhibitor, single point]"
15,Cc1ccc(-c2nc3ncccn3c2Nc2ccc3c(c2)OCO3)o1,"inconclusive: 35.5 µM [inhibitor, single point]"
16,S=C(Nc1cccc(Cl)c1Cl)NC1CCN(Cc2ccccc2)CC1,"inconclusive: 12.6 µM [inhibitor, partial curve, poor fit]"
17,COc1ccc(-c2onc3ccc(C(=O)/C=C/N(C)C)cc23)cc1,"inconclusive: 3.98 µM [activator, single point]"
18,Cc1cc(C=O)c(C)n1-c1cc(C(F)(F)F)ccc1N1CCOCC1,"inconclusive: 5.01 µM [inhibitor, full curve, poor fit]"
19,COc1cc(CC(=O)NC2CCCc3ccccc32)cc(OC)c1OC (stereo unspecified),"inconclusive: 11.2 µM [inhibitor, partial curve]"
20,CN(C)S(=O)(=O)c1ccc(N2CCCC2)c(C(=O)NNC(=O)COc2ccccc2F)c1,inactive
21,Cc1nc2[nH]c(=S)[nH]c(=O)c2nc1C,inactive
22,COc1ccccc1NC(=O)C1=C(C)Nc2nc(-c3ccco3)nn2C1c1ccccc1F (stereo unspecified),inactive

row,SMILES,Potency
1,CC(=O)c1ccc(NC(=O)C(C)Sc2nnc(-c3ccncc3)n2C2CC2)cc1 (stereo unspecified),"inconclusive: 0.708 µM [inhibitor, full curve]"
2,CC(C)CC(COCc1ccc(Cl)cc1)N1CCN(C(=O)c2ccc(Cl)cc2Cl)CCC1=O (stereo unspecified),"inconclusive: 14.6 µM [inhibitor, single point]"
3,COc1ccc(CCn2c(N)c(C(=O)NCc3ccco3)c3nc4ccccc4nc32)cc1OC,"inconclusive: 20.6 µM [inhibitor, single point]"
4,O=C(COC(=O)c1ccc(F)c([N+](=O)[O-])c1)NC(=O)NCc1ccccc1,"inconclusive: 35.5 µM [inhibitor, partial curve, poor fit]"
5,CCOc1ccc(S(=O)(=O)N(CC(=O)NCC(F)(F)F)Cc2ccco2)cc1,"inconclusive: 1.41 µM [inhibitor, single point]"
6,COc1ccc(/C=N/NC(=O)CCCOc2ccc(Cl)cc2Cl)cc1[N+](=O)[O-],"inconclusive: 8.91 µM [inhibitor, partial curve, poor fit]"
7,Cc1cc(C(=O)NCC(c2ccco2)N(C)C)no1 (stereo unspecified),"inconclusive: 2.59 µM [inhibitor, partial curve, poor fit]"
8,O=C(COC(=O)C1CCN(S(=O)(=O)c2cccs2)CC1)c1ccccc1,"inconclusive: 3.55 µM [activator, full curve]"
9,CCOCCCNC(=O)c1ccc2nc(-c3ccc(OC)c(OC)c3)c(-c3ccc(OC)c(OC)c3)nc2c1,"inconclusive: 1 µM [inhibitor, full curve, poor fit]"
10,Cc1ccc(C(=O)c2ccccc2C(=O)OCC(=O)NCCc2ccccc2)cc1,"inconclusive: 29.1 µM [inhibitor, single point]"
11,COc1ccc(C(C(=O)NC(C)(C)C)N(CCc2ccc(OC)c(OC)c2)C(=O)CCC(=O)Nc2cc(C)on2)cc1 (stereo unspecified),"inconclusive: 1 µM [inhibitor, full curve, poor fit]"
12,CN(CC(=O)Nc1ccccc1Cl)C(=O)c1ccc(COc2ccccc2)cc1,inactive
13,CSc1sc(C(=O)NNC(=O)c2ccc(Cl)cc2)c2c1C=CCC2,"inconclusive: 2.82 µM [inhibitor, single point]"
14,O=C(OCn1ncc(Cl)c(Cl)c1=O)c1cccc(C(F)(F)F)c1,"inconclusive: 20.6 µM [inhibitor, single point]"
15,CCN(CC)c1nc2c(c(=O)[nH]c(=O)n2C)n1CCCc1ccccc1,"inconclusive: 17.8 µM [inhibitor, partial curve, poor fit]"
16,Cc1ccc(S(=O)(=O)N2CCOCC2)cc1C(=O)NCC1CCCCC1,"inconclusive: 3.55 µM [inhibitor, full curve]"
17,CC(C)Nc1nc2c(-c3cccc(Br)c3)nnn2c2ccccc12,"inconclusive: 11.2 µM [activator, partial curve]"
18,Cc1ccc(Cn2ccc(=O)c(OCc3c(Cl)cccc3Cl)c2C)cc1,"inconclusive: 20 µM [inhibitor, single point]"
19,O=C(CSc1nccn1Cc1ccccc1)NCc1ccccc1,inactive
20,C/C(=N\NC(=O)c1c[nH]c2ccccc12)c1ccc(C)s1,"inconclusive: 2.51 µM [activator, partial curve, poor fit]"
21,CC(=O)N1CCc2cc(S(=O)(=O)N3CCc4ccccc4C3)ccc21,inactive
22,CC(=NC(C)c1ccccc1)c1c(O)[nH]c(=O)[nH]c1=O (stereo unspecified),inactive

# Molecules above that have an aryl methoxy group:
row,SMILES,Potency
1,COc1cccc(C(c2c(O)nc(SC)n(C)c2=O)c2c(O)nc(SC)n(C)c2=O)c1,inactive
2,COc1ccccc1C(=O)NC(=S)Nc1ccc(NC(=O)c2ccco2)cc1,"inconclusive: 7.08 µM [inhibitor, partial curve, poor fit]"
17,COc1ccc(-c2onc3ccc(C(=O)/C=C/N(C)C)cc23)cc1,"inconclusive: 3.98 µM [activator, single point]"
19,COc1cc(CC(=O)NC2CCCc3ccccc32)cc(OC)c1OC (stereo unspecified),"inconclusive: 11.2 µM [inhibitor, partial curve]"
22,COc1ccccc1NC(=O)C1=C(C)Nc2nc(-c3ccco3)nn2C1c1ccccc1F (stereo unspecified),inactive
3,COc1ccc(CCn2c(N)c(C(=O)NCc3ccco3)c3nc4ccccc4nc32)cc1OC,"inconclusive: 20.6 µM [inhibitor, single point]"
6,COc1ccc(/C=N/NC(=O)CCCOc2ccc(Cl)cc2Cl)cc1[N+](=O)[O-],"inconclusive: 8.91 µM [inhibitor, partial curve, poor fit]"
9,CCOCCCNC(=O)c1ccc2nc(-c3ccc(OC)c(OC)c3)c(-c3ccc(OC)c(OC)c3)nc2c1,"inconclusive: 1 µM [inhibitor, full curve, poor fit]"
11,COc1ccc(C(C(=O)NC(C)(C)C)N(CCc2ccc(OC)c(OC)c2)C(=O)CCC(=O)Nc2cc(C)on2)cc1 (stereo unspecified),"inconclusive: 1 µM [inhibitor, full curve, poor fit]"

# (more compounds)

row,SMILES,Potency
1,CC1CCCCN1C(=O)Cn1c(=O)oc2ccccc21 (stereo unspecified),inactive
2,CC(C)C1C(=O)N(Cc2cn(CC3CCCCC3)nn2)CCS(=O)(=O)N1Cc1ccc(-c2ccc(F)nc2)cc1 (stereo unspecified),"inconclusive: 19.9 µM [inhibitor, partial curve]"
3,Cc1cccc(-n2ncc3c2CCCC3NC(=O)CCN2CCCO2)c1C (stereo unspecified),"inconclusive: 0.562 µM [inhibitor, full curve, poor fit]"
4,CCOc1nc(Nc2ccc(OC)c(Cl)c2)nc(N2CCN(c3ccc(OC)cc3)CC2)n1,"inconclusive: 35.5 µM [inhibitor, single point]"
5,Cc1cc(C(=O)Nc2ccc(Cl)cc2)n(-c2ccccc2)n1,inactive
6,COc1ccc(-c2[nH]ncc2CN2CCCC(C(=O)c3ccc(OC)cc3OC)C2)cc1 (stereo unspecified),inactive
7,Nc1c(S(=O)(=O)c2cccs2)c2nc3ccccc3nc2n1Cc1ccc2c(c1)OCO2,"inconclusive: 29.1 µM [inhibitor, single point]"
8,CC(=O)C1=C(C)N(Cc2ccccc2)C(=O)NC1c1ccco1 (stereo unspecified),inactive
9,Cc1ccc(NC(=O)CCn2c(=O)oc3ccccc32)c(C)c1,inactive
10,O=c1[nH]c2ccccc2n1CCCN1CCCCC1,"inconclusive: 22.4 µM [inhibitor, single point]"
11,Cc1ccnc(SCC(=O)c2ccc([N+](=O)[O-])cc2)n1,"inconclusive: 11.2 µM [activator, partial curve, poor fit]"
12,O=C1NCC(Nc2ccc(Br)cc2)C(=O)N1 (stereo unspecified),"inconclusive: 5.62 µM [inhibitor, single point]"
13,COc1ccc(NC(=O)C2CCC(CNS(=O)(=O)c3ccc(Br)s3)CC2)c(OC)c1 (stereo unspecified),inactive
14,Cc1ccccc1-n1ncc2c1CC(C)(C)CC2NC(=O)C1=CC(=O)CC(C)(C)O1 (stereo unspecified),"inconclusive: 7.94 µM [inhibitor, partial curve, poor fit]"
15,CCc1cc(C(=O)Nc2c(C)nn(Cc3ccccc3Cl)c2C)no1,"inconclusive: 35.5 µM [inhibitor, single point]"
16,O=C(CNC(=S)NC(=O)c1ccco1)c1ccccc1,"inconclusive: 4.47 µM [activator, partial curve, poor fit]"
17,CCOC(=O)C1=C(CN2CCOCC2)NC(=O)NC1c1cc(C)ccc1C (stereo unspecified),inactive
18,CCn1c(SCC(=O)Nc2cccc(C)n2)nc2c1c(=O)n(C)c(=O)n2C,"inconclusive: 20 µM [inhibitor, single point]"
19,CC(C)C(=O)N1CCC(c2nc(-c3ccc(S(=O)(=O)N4CCN(C)CC4)cc3)no2)CC1,"inconclusive: 1 µM [activator, full curve, poor fit]"
20,O=[N+]([O-])c1ccc(C(O)CNC(=S)Nc2ccccc2)cc1 (stereo unspecified),"inconclusive: 0.562 µM [activator, full curve, poor fit]"
21,COCCCn1c(=S)[nH]c2c(sc3ccccc32)c1=O,inactive
22,Cn1cc(/C=N/NC(=O)c2cc3cc(Br)ccc3o2)c2ccccc21,"inconclusive: 6.31 µM [inhibitor, single point]"

# 2 of these compounds, reformatted.
row	SMILES	Potency
18	Cc1cc(C=O)c(C)n1-c1cc(C(F)(F)F)ccc1N1CCOCC1	inconclusive: 5.01 µM [inhibitor, full curve, poor fit]
8	O=C(COC(=O)C1CCN(S(=O)(=O)c2cccs2)CC1)c1ccccc1	inconclusive: 3.55 µM [activator, full curve]
